Experimental data from publication PMC4654411.
These are yes or no findings as the source states them, for the method shown. For some of these results: Binding can be weak; no strength is given. Tags and fused reporters may be left off the sequences shown.

Legend:
Assay in all cases: two-hybrid; GAL4-based: GAL4-BD fusions (pPC97) and GAL4-AD fusions (pPC86) in yeast PJ69-4A; growth on L−W−H− plates at 30 °C for 2–6 days; colorimetric β-galactosidase assay on liquid cultures
[1] = biological target: GAL4-BD-FlnA-P637Q (P637Q-FlnA-1–8,24) (human)
[2] = biological target: GAL4-BD-FlnA-H743P (H743P-FlnA-1–8,24) (human)
[3] = biological target: GAL4-BD-FlnA-WT (WT-FlnA-1–8,24) (human)
[4] = biological target: GAL4-BD-FlnA-G288R (G288R-FlnA-1–8,24) (human)

B1: GAL4-AD-PTPN12 (T587-N753 peptide region of PTPN12) (domain or fragment, UniProt Q05209 587-753)
chain: TSPLFRTPLSFTNPLHSDDSDSDERNSDGAVTQNKTNISTASATVSAATSTESISTRKVLPMSIARHNIAGTTHSGAEKDVDVSEDSPPPLPERTPESFVLASEHNTPVRSEWSELQSQERSEQKKSEGLITSENEKCDHPAGGIHYEMCIECPPTFSDKREQISEN
**Q.** For B1, which binding [1] is on record?
**A.** no binding

**Q.** And the binding [2]?
**A.** no binding

**Q.** And the binding [3]?
**A.** binds

**Q.** What about the binding [4] of the same binder?
**A.** no binding
